# The list shows a part of the results. Further columns of the screen follow, without active or inactive calls. The list favours compounds with an active or inconclusive main result. The note in brackets gives the kind of curve behind each potency; many fits are weak.
# Assay: qHTS for identification of novel therapeutic agents for treatment of microphthalmiaassociated transcription factor (MiT) renal cell carcinoma (RCC) (AID 1963991)
# Details: CellTiter-Glo, 48 h; for z-score: stronger effect = lower value
# Method in brief: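 Curves over 11 concentrations were fitted to CellTiter-Glo luminescence, scaled between empty wells (0%) and DMSO (100%) viability. Cells were UOK109, UOK124 and UOK145 TFE3-fusion RCC lines at 500/well, exposed 48 hours at 37 C.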
# [1] = TFE3-RCC UOK109 viability, measured here: UOK109 Z-AUC
# [2] = TFE3-RCC viability, measured here: UOK124 Z-AUC
# [3] = TFE3-RCC viability, measured here: UOK145 Z-AUC
# [4] = TFE3-RCC viability, measured here: UOK145 cell viability
# [5] = TFE3-RCC viability, measured here: UOK124 cell viability
SMILES,z-score [1],z-score [2],z-score [3],AC50 [4],AC50 [5]
O=C(Nc1cc(Cl)cc2c1[nH]c1cnccc12)c1cccnc1,-1.08,0.527,0.681,"29.6 µM [falling, single point]",–
Cc1ccc(Nc2cc(-c3cccc(N4C(=O)c5ccccc5C4=O)c3)ncn2)cc1NS(C)(=O)=O,-0.325,0.435,-0.023,"33.2 µM [falling, partial curve, poor fit]",–
CCC(=O)NC[C@H](Cc1ccc(OCCc2nc(-c3ccccc3)oc2C)cc1)NC(C)=CC(=O)c1ccc(C(F)(F)F)cc1,-0.354,0.163,-0.285,"16.6 µM [falling, partial curve]",–
COc1ccnc2[nH]cc(C(=O)C(=O)N3CCN(C(=O)c4ccccc4)C[C@@H]3C)c12,0.796,0.884,2.45,"0.0118 µM [falling, full curve, poor fit]",–
COc1ccc2c(OCc3nnc4ccc(-c5ccccc5)nn34)ccnc2c1,0.891,1.25,0.837,–,"0.00187 µM [rising, full curve, poor fit]"
COc1cc(NC(=O)c2ccc(-c3ccc(Cl)cc3)o2)cc(OC)c1,-0.462,0.191,-0.366,"8.33 µM [falling, full curve]",–
CC1(C)O[C@@H]2C[C@H]3[C@@H]4CCC5=CC(=O)C=C[C@]5(C)[C@@H]4[C@@H](O)C[C@]3(C)[C@]2(C(=O)CO)O1,0.485,0.717,1.05,"23.5 µM [falling, partial curve, poor fit]",–
O=C1NC(=O)C(=Cc2ccc3c(c2)OC(F)(F)O3)S1,0.994,0.29,0.496,"18.7 µM [falling, partial curve]",–
COC(=O)C=CC(=O)OC,-1.38,0.624,-0.195,"13.2 µM [falling, partial curve]",–
CC1CNc2c(cccc2S(=O)(=O)N[C@@H](CCCN=C(N)N)C(=O)N2CC[C@@H](C)C[C@@H]2C(=O)O)C1 (stereo partly drawn),0.0397,0.725,0.331,"13.2 µM [falling, partial curve]",–
Cc1ccc2c(c1)C(=O)[C@]1(O)CCN(c3ccccc3)C1=N2,1.09,1.14,-0.222,–,"23.5 µM [falling, single point]"
O=S(=O)(O)CCSSCCS(=O)(=O)O,-0.897,0.68,-0.728,"0.0166 µM [rising, full curve]",–
COc1cc(N2CCN(C)CC2)ccc1Nc1nc(N)c(C(=O)c2c(Cl)cccc2Cl)s1,0.101,-0.307,1.01,–,"20.9 µM [falling, partial curve]"
CN(C)c1ccc(O)c2c1C[C@H]1C[C@H]3[C@H](N(C)C)C(=O)C(C(N)=O)=C(O)[C@@]3(O)C(=O)C1=C2O,1.5,0.515,1.47,"5.26 µM [falling, full curve]",–
O=C1Nc2ccc(I)cc2C1=Cc1cc(Br)c(O)c(Br)c1,-0.872,0.338,0.837,"9.35 µM [falling, partial curve, poor fit]",–
N#CC(=C(N)Sc1ccc(N)cc1)c1ccccc1C(F)(F)F,-0.733,-0.219,-0.108,–,"6.62 µM [falling, partial curve, poor fit]"
CC1(C)Cc2c(-c3ccccc3)c(-c3ccc(Cl)cc3)c(CC(=O)O)n2C1,0.481,0.635,0.173,–,"20.9 µM [falling, single point]"
O=C1NC(=O)C(=Cc2cccc(C(F)(F)F)c2)S1,0.834,0.823,0.597,"18.7 µM [falling, partial curve]",–
COc1ccc(-c2cc(=O)c3c(O)cc(O[C@@H]4O[C@H](CO[C@@H]5O[C@@H](C)[C@H](O)[C@@H](O)[C@@H]5O)[C@@H](O)[C@H](O)[C@@H]4O)cc3o2)cc1O,0.594,-1.26,0.456,"18.7 µM [falling, partial curve, poor fit]",–
C[C@]12CCC3c4ccc(O)cc4CCC3C1CCC2=O (stereo partly drawn),0.0281,-0.0142,1.06,"0.00935 µM [falling, full curve, poor fit]",–
Oc1cc2c(cc1O)C1c3ccc(O)c(O)c3OCC1(O)C2 (stereo not drawn),0.947,0.45,1.28,–,"18.7 µM [falling, partial curve, poor fit]"
COc1ccc(Nc2nccc(NCCO)n2)cc1,0.207,0.0656,-0.194,–,"0.00148 µM [rising, full curve]"
NC1=N[C@@]2(c3cc(NC(=O)c4ccc(F)cn4)ccc3F)COC[C@@H]2CS1,-0.216,-2.01,0.19,"4.69 µM [falling, full curve]",–
NC(N)=Nc1nc(CSCCC(N)=NS(N)(=O)=O)cs1,0.0967,0.398,0.481,"23.5 µM [falling, partial curve, poor fit]",–

# Quoted at random: two compounds from above.
SMILES,z-score [1],z-score [2],z-score [3],AC50 [4],AC50 [5]
C[C@]12CCC3c4ccc(O)cc4CCC3C1CCC2=O (stereo partly drawn),0.0281,-0.0142,1.06,"0.00935 µM [falling, full curve, poor fit]",–
N#CC(=C(N)Sc1ccc(N)cc1)c1ccccc1C(F)(F)F,-0.733,-0.219,-0.108,–,"6.62 µM [falling, partial curve, poor fit]"

# (list continues)

SMILES,z-score [1],z-score [2],z-score [3],AC50 [4],AC50 [5]
CCN(CC)CCOc1ccc(C(=C(Cl)c2ccccc2)c2ccccc2)cc1,-1.55,0.545,0.378,"23.5 µM [falling, partial curve, poor fit]",–
COc1cc([C@H]2Oc3cc([C@H]4Oc5cc(O)cc(O)c5C(=O)[C@H]4O)ccc3O[C@H]2CO)ccc1O,1.14,0.258,-0.00811,"16.6 µM [falling, partial curve, poor fit]",–
CC1(C)CCC(C)(C)c2cc(NC(=O)c3ccc(C(=O)O)cc3)ccc21,-0.0509,0.803,0.0517,"23.5 µM [falling, partial curve, poor fit]",–
O=C1C(c2c(O)[nH]c3ccccc23)=Nc2ccccc21,-0.491,0.151,0.195,"18.7 µM [falling, partial curve]",–
Fc1ccc(C(c2ccc(F)cc2)N2CCN(CC=Cc3ccccc3)CC2)cc1,0.763,0.528,0.248,–,"33.2 µM [falling, partial curve, poor fit]"
Oc1cc(O)cc(C=Cc2ccc(O)c(O)c2)c1,0.568,1.2,-0.0976,–,"18.7 µM [falling, single point]"
CCCOc1ccc(C(=O)OCCN(CC)CC)cc1N,0.23,0.566,0.677,–,"2.96 µM [falling, partial curve, poor fit]"
CC(C)(C)c1nc2c3cc[nH]c(=O)c3c3cc(F)ccc3c2[nH]1,0.281,-0.603,-0.0236,"3.72 µM [falling, full curve]",–
CC(C(=O)O)c1ccc(-c2ccccc2)c(F)c1 (stereo not drawn),0.688,0.362,-0.547,"16.6 µM [falling, partial curve]",–
CN(C(Cc1ccc(OS(=O)(=O)c2cccc3cnccc23)cc1)C(=O)N1CCN(c2ccccc2)CC1)S(=O)(=O)c1cccc2cnccc12 (stereo not drawn),0.0214,0.246,0.457,"20.9 µM [falling, partial curve]",–
CC1(C)O[C@H]2C[C@@H]3[C@H]4CCC5=CC(=O)C=C[C@]5(C)[C@@]4(F)[C@@H](O)C[C@]3(C)[C@]2(C(=O)CO)O1,-0.476,0.597,2.65,"33.2 µM [falling, single point]",–
COc1cc(C(C)=O)ccc1OCCCN1CCC(c2noc3cc(F)ccc23)CC1,-0.141,0.0417,0.343,–,"33.2 µM [falling, single point]"
O=C(O)CCCCC(CCSCc1ccccc1)SCc1ccccc1 (stereo not drawn),-0.193,0.225,-0.746,"14.8 µM [falling, partial curve, poor fit]",–
OCc1ccccc1O[C@@H]1O[C@H](CO)[C@H](O)[C@H](O)[C@H]1O,0.781,0.556,0.66,–,"0.00332 µM [rising, full curve]"
c1cc(CN2CCCNCCNCCCNCC2)ccc1CN1CCCNCCNCCCNCC1,0.271,0.666,0.365,"37.2 µM [falling, single point]",–
Nc1nc(-c2nn(Cc3ccccc3F)c3ncccc23)nc(N)c1N1CCOCC1,0.317,0.451,0.233,–,"37.2 µM [falling, partial curve, poor fit]"
O=C1NC(=O)C(=Cc2ccc3nccnc3c2)S1,0.527,-0.871,0.993,"8.12 µM [falling, partial curve]",–
COc1cnc(NS(=O)(=O)c2ccc(N)cc2)nc1,0.482,0.11,-0.0935,"18.7 µM [falling, partial curve]",–
CCC[C@@H](NC(=O)[C@@H]1[C@H]2CCC[C@@H]2CN1C(=O)[C@@H](NC(=O)[C@@H](NC(=O)c1cnccn1)C1CCCCC1)C(C)(C)C)C(=O)C(=O)NC1CC1,0.631,0.657,-1.64,–,"23.5 µM [falling, single point]"
NC(=O)NN=Cc1ccc([N+](=O)[O-])o1,-2.23,0.62,1.29,–,"26.4 µM [falling, single point]"
CC(C)(C)NC(=O)[C@H]1CC[C@H]2[C@@H]3CC[C@H]4NC(=O)C=C[C@]4(C)[C@H]3CC[C@]12C,-0.507,-0.00295,-0.715,"2.96 µM [falling, full curve]",–
CCCCOc1ccc(C(=O)Nc2ccc(F)cc2F)cc1,0.623,0.067,0.187,–,"0.00187 µM [rising, full curve]"
CC(O)=C(C#N)C(=O)Nc1ccc(C(F)(F)F)cc1,0.786,-2.65,0.412,"16.6 µM [falling, partial curve]",–

# — PubChem BioAssay (NCATS)
